Results are given in words; binding and its absence hold for the method and conditions named. In cells and extracts the contact can be indirect. Binding calls can cover weak binding; strength is not graded here.
Legend:
Test in all cases: pull-down
[1] = molecular target: isolated third intercellular loop (icl3) of alpha 2B adrenergic receptor (UniProt P18089)
[2] = molecular target: isolated third intercellular loop (icl3) of Lysophosphatidic Acid Receptor 1 (LPAR1) (UniProt Q92633)
[3] = molecular target: isolated third intercellular loop (icl3) of alpha 2A adrenergic receptor (UniProt P08913)

Protein sequences, listed by entry. Tags and fused reporters are not part of them. Lines headed by an entry give the natural chain unless they say otherwise; changes in a name come on top.
UniProt P18089: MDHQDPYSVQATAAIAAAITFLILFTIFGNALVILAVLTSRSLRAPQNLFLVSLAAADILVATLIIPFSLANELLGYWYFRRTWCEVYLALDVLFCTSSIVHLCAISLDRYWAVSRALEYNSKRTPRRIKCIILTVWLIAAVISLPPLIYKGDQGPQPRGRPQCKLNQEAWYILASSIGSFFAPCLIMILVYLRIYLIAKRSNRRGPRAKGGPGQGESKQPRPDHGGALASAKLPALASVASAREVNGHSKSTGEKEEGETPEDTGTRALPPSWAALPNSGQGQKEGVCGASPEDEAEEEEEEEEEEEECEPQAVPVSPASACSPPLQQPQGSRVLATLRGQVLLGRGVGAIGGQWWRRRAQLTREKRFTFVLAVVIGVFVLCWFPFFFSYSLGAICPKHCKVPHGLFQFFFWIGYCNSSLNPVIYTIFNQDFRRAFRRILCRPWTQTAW
UniProt Q92633: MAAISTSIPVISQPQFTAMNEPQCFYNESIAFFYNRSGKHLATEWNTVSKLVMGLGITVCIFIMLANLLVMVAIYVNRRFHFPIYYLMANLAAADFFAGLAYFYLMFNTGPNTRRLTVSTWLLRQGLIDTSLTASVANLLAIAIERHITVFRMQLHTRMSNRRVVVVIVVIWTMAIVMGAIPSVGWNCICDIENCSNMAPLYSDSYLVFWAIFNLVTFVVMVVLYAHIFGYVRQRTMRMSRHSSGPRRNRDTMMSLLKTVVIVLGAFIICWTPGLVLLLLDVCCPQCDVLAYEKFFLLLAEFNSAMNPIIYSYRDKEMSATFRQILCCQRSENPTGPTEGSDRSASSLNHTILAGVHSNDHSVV
UniProt P08913: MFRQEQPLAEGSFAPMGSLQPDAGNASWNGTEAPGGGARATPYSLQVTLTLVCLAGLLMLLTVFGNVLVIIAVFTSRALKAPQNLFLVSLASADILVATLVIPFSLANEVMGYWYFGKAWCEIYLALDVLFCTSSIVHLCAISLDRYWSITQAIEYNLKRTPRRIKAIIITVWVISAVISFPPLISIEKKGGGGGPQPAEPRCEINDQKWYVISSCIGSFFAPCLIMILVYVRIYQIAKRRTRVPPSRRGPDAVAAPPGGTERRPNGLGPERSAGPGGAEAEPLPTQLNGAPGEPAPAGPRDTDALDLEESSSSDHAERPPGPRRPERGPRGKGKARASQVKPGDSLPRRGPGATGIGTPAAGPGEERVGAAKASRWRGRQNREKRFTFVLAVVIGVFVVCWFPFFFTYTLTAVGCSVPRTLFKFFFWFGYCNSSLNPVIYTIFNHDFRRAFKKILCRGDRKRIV
UniProt P08753: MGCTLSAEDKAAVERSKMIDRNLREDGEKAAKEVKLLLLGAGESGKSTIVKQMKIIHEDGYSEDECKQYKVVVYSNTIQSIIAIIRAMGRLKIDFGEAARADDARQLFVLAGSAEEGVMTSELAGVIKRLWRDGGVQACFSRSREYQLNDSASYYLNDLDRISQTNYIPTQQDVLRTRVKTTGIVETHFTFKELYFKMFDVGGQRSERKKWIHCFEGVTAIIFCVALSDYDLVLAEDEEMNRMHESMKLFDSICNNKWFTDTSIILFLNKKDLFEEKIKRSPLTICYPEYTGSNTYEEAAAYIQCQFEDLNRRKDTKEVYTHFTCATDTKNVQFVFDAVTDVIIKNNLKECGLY

binding [1]	binding [2]	binding [3]	Substance
binds	binds	binds	Gαi3-FLAG, phosphotyrosinated (induced by EGF) (from UniProt P08753 1-354)
binds	binds	binds	Gαi3-FLAG, non-phosphorylated (from UniProt P08753 1-354)

— article doi:10.1101/2022.09.11.507491
